According to the supplement of paper PMC6411743:
± gives the standard deviation of the averaged measurements. The entries are a selection whose mix differs from that of the whole data set.

Compound: Nc1ncnc2c1ncn2[C@@H]1O[C@H](COP(=O)(O)OP(=O)(O)OP(=O)(O)O)[C@@H](O)[C@H]1O [adenosine triphosphate]
Assay: NP40-soluble protein abundance relative to vehicle (solubility fold change) (ratio); higher = more soluble protein in presence of ATP
Procedure, shortened: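 Eight concentrations, 0.1 to 10 mM, were tested on Jurkat crude lysate for 10 min at room temperature and then 3 min at 37 °C, in three independent experiments. The lysate was solubilised with 0.8% NP40 and benzonase, ultracentrifuged, and the supernatant TMT-labelled for LC-MS/MS. Each value is the fold change against the detergent-processed vehicle in its own replicate, from vsn-normalised intensities.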

Target	NP40-soluble protein abundance (concentration: 1mM)	NP40-soluble protein abundance (concentration: 2mM)	NP40-soluble protein abundance (concentration: 4mM)	NP40-soluble protein abundance (concentration: 6mM)	NP40-soluble protein abundance (concentration: 8mM)	NP40-soluble protein abundance (concentration: 10mM)
B4DGU4 and related entries (UniProt P35222)	1.01 ± 0.079	1.02 ± 0.055	1.03 ± 0.039	0.964 ± 0.11	0.978 ± 0.033	1.01 ± 0.062
D6RDM7 and related entries (UniProt P61086)	0.946 ± 0.087	0.956 ± 0.061	0.923 ± 0.071	0.941 ± 0.091	0.916 ± 0.074	0.927 ± 0.031
B8ZZN6 and related entries (UniProt P63165)	0.882 ± 0.088	0.866 ± 0.094	0.842 ± 0.062	0.923 ± 0.1	0.871 ± 0.01	0.806 ± 0.091
A0A0G2JNC5|A0A0G2JNH7|F8WCM8 and related entries (UniProt O15197)	0.954 ± 0.059	1.08 ± 0.083	1.06 ± 0.12	0.969 ± 0.12	1.04 ± 0.04	1.06 ± 0.065
UniProt A6QL63 and related entries	0.972 ± 0.081	0.992 ± 0.033	0.994 ± 0.057	0.992 ± 0.034	1.03 ± 0.024	0.979 ± 0.044
B4E0Y9 and related entries (UniProt Q9P289)	0.977 ± 0.024	0.9924 ± 0.0082	0.963 ± 0.025	1.002 ± 0.0083	0.956 ± 0.029	0.964 ± 0.046
A0A0J9YWL0|Q9Y4K1 (UniProt Q9Y4K1)	1 ± 0.018	0.998 ± 0.015	1 ± 0.02	1.02 ± 0.021	1.02 ± 0.025	1.03 ± 0.031
B5MDF5 and related entries (UniProt P62826)	1.01 ± 0.034	0.983 ± 0.034	0.949 ± 0.025	0.967 ± 0.06	0.934 ± 0.034	0.957 ± 0.053
D6RD47 and related entries (UniProt P62266)	0.918 ± 0.052	0.9 ± 0.077	0.869 ± 0.069	0.81 ± 0.097	0.785 ± 0.09	0.831 ± 0.056
C9JLJ1 and related entries (UniProt Q9BZK7)	1 ± 0.085	1.02 ± 0.051	0.976 ± 0.058	0.959 ± 0.013	0.99 ± 0.048	1.04 ± 0.042
C9JCW7 and related entries (UniProt Q9BVT8)	1.09 ± 0.17	0.929 ± 0.019	1.07 ± 0.17	1.03 ± 0.14	1.01 ± 0.11	0.969 ± 0.018
A0A140T9L0|O15213 (UniProt O15213)	1.04 ± 0.088	1.11 ± 0.16	1.29 ± 0.17	1.25 ± 0.051	1.21 ± 0.093	1.33 ± 0.31
B1ANH0 and related entries (UniProt Q16774)	0.965 ± 0.034	1 ± 0.02	0.959 ± 0.018	0.974 ± 0.022	0.964 ± 0.028	0.944 ± 0.03
D3DQ64 and related entries (UniProt P27144)	1.05 ± 0.1	0.973 ± 0.047	1.07 ± 0.046	1.02 ± 0.048	1.07 ± 0.066	0.992 ± 0.1
D6RA37 and related entries (UniProt Q13454)	1.02 ± 0.088	1 ± 0.051	0.97 ± 0.056	0.938 ± 0.07	0.998 ± 0.04	1.03 ± 0.029
C9JEH3 and related entries (UniProt Q13685)	1.02 ± 0.091	0.994 ± 0.072	0.981 ± 0.11	1.01 ± 0.069	0.99 ± 0.12	0.962 ± 0.095
C5orf51 (UniProt A6NDU8)	1.02 ± 0.013	1.02 ± 0.099	1.01 ± 0.054	0.97 ± 0.012	0.974 ± 0.055	0.937 ± 0.062
B8ZZU6 and related entries (UniProt P15336)	0.905 ± 0.055	0.909 ± 0.062	0.983 ± 0.14	1.02 ± 0.17	0.892 ± 0.055	0.922 ± 0.1
B2RA97 and related entries (UniProt Q9Y5N5)	0.958 ± 0.081	0.958 ± 0.06	0.972 ± 0.05	0.938 ± 0.1	0.884 ± 0.059	0.947 ± 0.039
A2A2G4 and related entries (UniProt Q9Y672)	0.927 ± 0.17	0.96 ± 0.13	0.993 ± 0.15	0.939 ± 0.21	0.899 ± 0.11	0.984 ± 0.032
A0A0G2JNB1|A0A0G2JNT7|Q7Z3B3 and related entries (UniProt Q7Z3B3)	1.06 ± 0.051	1.05 ± 0.048	1.08 ± 0.088	1.1 ± 0.14	1.13 ± 0.1	1.15 ± 0.11
A0A0U1RR27|Q7Z401 and related entries (UniProt Q7Z401)	0.968 ± 0.073	0.949 ± 0.057	0.951 ± 0.055	1 ± 0.11	0.939 ± 0.031	0.931 ± 0.043
HMX3 (UniProt A6NHT5)	0.851 ± 0.026	0.915 ± 0.11	0.988 ± 0.032	1.02 ± 0.046	0.841 ± 0.16	0.946 ± 0.17
C9J5C3 and related entries (UniProt Q9BUL8)	0.967 ± 0.054	0.962 ± 0.046	0.943 ± 0.05	0.945 ± 0.082	0.981 ± 0.064	0.922 ± 0.075
A8MQ02 and related entries (UniProt P55196)	1.05 ± 0.065	1.06 ± 0.082	1.08 ± 0.1	1.08 ± 0.048	1.02 ± 0.035	1.03 ± 0.052
A0A0G2JJD3|O95870 (UniProt O95870)	1.02 ± 0.1	1.03 ± 0.095	1.04 ± 0.1	0.945 ± 0.13	1.08 ± 0.031	1.06 ± 0.018
B7ZM99 and related entries (UniProt Q6UB35)	1 ± 0.049	1.01 ± 0.041	0.996 ± 0.035	0.957 ± 0.088	1 ± 0.042	0.996 ± 0.037
D6RER5 and related entries (UniProt Q9NVA2)	1 ± 0.032	1.01 ± 0.027	0.982 ± 0.011	1.01 ± 0.04	0.943 ± 0.025	0.9937 ± 0.004
A2A2V1 and related entries (UniProt P04156+A2A2V1)	1.07 ± 0.066	1 ± 0.091	1.04 ± 0.041	0.973 ± 0.015	0.947 ± 0.021	0.907 ± 0.057
D4Q8H0 and related entries (UniProt Q9NYL2+D4Q8H0)	0.978 ± 0.022	1.03 ± 0.046	1.03 ± 0.014	0.929 ± 0.021	0.995 ± 0.076	1.09 ± 0.028

A stretch from further up, for reference:
Target	NP40-soluble protein abundance (concentration: 1mM)	NP40-soluble protein abundance (concentration: 2mM)	NP40-soluble protein abundance (concentration: 4mM)	NP40-soluble protein abundance (concentration: 6mM)	NP40-soluble protein abundance (concentration: 8mM)	NP40-soluble protein abundance (concentration: 10mM)
B4DGU4 and related entries (UniProt P35222)	1.01 ± 0.079	1.02 ± 0.055	1.03 ± 0.039	0.964 ± 0.11	0.978 ± 0.033	1.01 ± 0.062
D6RDM7 and related entries (UniProt P61086)	0.946 ± 0.087	0.956 ± 0.061	0.923 ± 0.071	0.941 ± 0.091	0.916 ± 0.074	0.927 ± 0.031
B8ZZN6 and related entries (UniProt P63165)	0.882 ± 0.088	0.866 ± 0.094	0.842 ± 0.062	0.923 ± 0.1	0.871 ± 0.01	0.806 ± 0.091
A0A0G2JNC5|A0A0G2JNH7|F8WCM8 and related entries (UniProt O15197)	0.954 ± 0.059	1.08 ± 0.083	1.06 ± 0.12	0.969 ± 0.12	1.04 ± 0.04	1.06 ± 0.065
UniProt A6QL63 and related entries	0.972 ± 0.081	0.992 ± 0.033	0.994 ± 0.057	0.992 ± 0.034	1.03 ± 0.024	0.979 ± 0.044
B4E0Y9 and related entries (UniProt Q9P289)	0.977 ± 0.024	0.9924 ± 0.0082	0.963 ± 0.025	1.002 ± 0.0083	0.956 ± 0.029	0.964 ± 0.046
A0A0J9YWL0|Q9Y4K1 (UniProt Q9Y4K1)	1 ± 0.018	0.998 ± 0.015	1 ± 0.02	1.02 ± 0.021	1.02 ± 0.025	1.03 ± 0.031
